Data reported in patent publication US20250339419A1, “METHODS OF TREATING OCULAR INFLAMMATORY DISEASES” (priority 2021, published 2025).
The name of at least one read-out is uncertain.

Test: Phase 1 double-masked multiple-dose plasma PK study of roflumilast topical ophthalmic suspension (0.3%)
Assay type: in vivo, human
Conditions: Day 1, individual profiles (all but 2 participants), FIGS. 12-13
Experimental: A pharmacokinetic (PK) study of a roflumilast topical ophthalmic suspension was conducted. Data at Day 1 (Example 15), Day 8 (Example 16), and comparative data (Example 17) is provided.
The study was a Phase 1, double-masked, multiple-dose study conducted in healthy volunteers. The multiple-dose study was conducted over a single dose level where participants were randomly assigned to receive a masked dose of roflumilast topical ophthalmic suspension eye drops (n=14) or vehicle only (n=2) as set forth in Table 7, administered as a single drop in each eye BID (twice daily, every 12 hours) for seven days, followed by a single morning dose on Day 8.
Blood samples were collected at multiple time points on Days 1, 2, 8, and 9. […]
Roflumilast topical ophthalmic suspension and roflumilast n-oxide (metabolite) concentrations in plasma were evaluated using Phoenix™ WinNonlin® version and 8.4 (Pharsight Corporation, USA). For both analytes, the upper limit of quantification (ULOQ) was […] and the lower limit of quantification (LLOQ) was […].
Analysis Procedures: Actual collection times were used for PK parameter determinations, calculated with respect to the dose time. […] The goodness of fit of the regression was evaluated using the square of the correlation coefficient (adjusted R2) which was required to be at least 0.8 for the λz l value to be considered reliable. […]

SMILES: O=C(Nc1c(Cl)cncc1Cl)c1ccc(OC(F)F)c(OCC2CC2)c1 [Roflumilast, N-(3,5-dichloropyrid-4-yl)-3-cyclopropylmethoxy-4-difluoromethoxybenzamide]
- time at which Cmax occurred: approximately 2 hours
